Results as given in the supplement of paper PMC11060735.
Where “and” joins values, the source holds several entries; their conditions need not be identical. Equal entries are not always repeated. Structures can show the parent of a compound that is named as a salt. ± gives the standard deviation of the averaged measurements. Over roughly 1,800 compounds, “GFP- (p16Ink4a-) cell count relative to negative-control wells” has its median near 0.99; the lowest 2% begin near 0.5. Some of the results follow.

The molecules below were run on mouse p16Ink4a+/- lung fibroblasts (INKBRITE, bleomycin-injured) (assay: GFP- (p16Ink4a-) cell count relative to negative-control wells (fold of vehicle); higher = more p16Ink4a- cells surviving). Details: 1 µM; 3 days.

| SMILES | GFP- |
| --- | --- |
| COc1ccc(NS(=O)(=O)c2ccc(N)cc2)nn1 [Sulfamethoxypyridazine] | 0.935 |
| Clc1ccc2nsnc2c1NC1=NCCN1 [Tizanidine] | 1.12 |
| CC1=C(C(=O)Nc2cc3c[nH]nc3cc2F)C(c2ccc(C(F)(F)F)cc2)CC(=O)N1 (stereo not given) | 1.23 |
| CN(C)CCOC(C)(c1ccccc1)c1ccccn1 (stereo not given) [Doxylamine] | 1.17 |
| CC(=O)Nc1ccc(C(=O)Nc2ccccc2N)cc1 [Tacedinaline] | 0.749 ± 0.061 |
| CN(C)CCCOc1nn(Cc2ccccc2)c2ccccc12 [Benzydamine] | 0.535 |
| CC(=O)Nc1ncc([N+](=O)[O-])s1 [Nithiamide] | 1.03 |
| CNCC[C@@H](Oc1ccccc1C)c1ccccc1 [Atomoxetine] | 1.04 |
| CCC(=O)NCC[C@@H]1CCc2ccc3c(c21)CCO3 [Ramelteon] | 0.863 |
| CC(C)n1nc(-c2cc3cc(O)ccc3[nH]2)c2c(N)ncnc21 | 0.613 |
| CCc1oc2ccccc2c1C(=O)c1cc(Br)c(O)c(Br)c1 [Benzbromarone] | 0.921 |
| Cc1nc2n(c(=O)c1CCN1CCC(c3noc4cc(F)ccc34)CC1)CCCC2 [Risperidone] | 0.982 |
| Clc1cccc(Cl)c1NC1=NCCN1 [Clonidine] | 0.819 |
| CN1[C@@H]2CC[C@H]1C[C@@H](OC(=O)C(O)c1ccccc1)C2 (stereo not given in full) [Homatropine Bromide] | 1.14 |
| CC(=O)Oc1cccc2c1C(=O)c1c(OC(C)=O)cc(C(=O)O)cc1C2=O [Diacerin] | 1.14 |
| CC(C)OC(=O)C1=CN(C(=O)c2ccc(F)c(F)c2)CC(C)(C)c2c1[nH]c1ccccc21 | 1.04 |
| Oc1cc(O)cc(/C=C/c2ccc(O)c(O)c2)c1 [Piceatannol] | 1.06 |
| Cc1ccc(NC(=O)C2(c3ccc4c(c3)OC(F)(F)O4)CC2)nc1-c1cccc(C(=O)O)c1 [Lumacaftor] | 0.94 |
| CCCS(=O)c1ccc2[nH]c(NC(=O)OC)nc2c1 (stereo not given) [Albendazole Oxide] | 1 |
| COc1cc(Nc2ncc(F)c(Nc3ccc4c(n3)N(COP(=O)(O)O)C(=O)C(C)(C)O4)n2)cc(OC)c1OC [Fostamatinib] | 0.771 |
| Cc1c(CN2CCN(C(=O)[C@H](C)O)CC2)sc2c(N3CCOCC3)nc(-c3cnc(N)nc3)nc12 | 0.612 |
| CC(C)(C)Cn1c(N)nc2ccc(-c3[nH]c(C(C)(C)C)nc3-c3ccc(F)cc3)nc21 | 0.974 |
| CCCCC(F)(F)C(=O)CC[C@H]1[C@H](O)CC(=O)[C@@H]1CCCCCCC(=O)O [Lubiprostone] | 0.931 |
| NNc1nncc2ccccc12 [Hydralazine] | 1.12 |
| O=C1c2ccccc2C(=O)c2c1ccc(O)c2O [Alizarin] | 1.05 |
| COc1cc(/C=C/C(=O)/C=C(O)/C=C/c2ccc(O)c(OC)c2)ccc1O | 1.11 |
| C[C@H](CCC(=O)O)[C@H]1CC[C@H]2[C@@H]3[C@H](O)C[C@@H]4C[C@H](O)CC[C@]4(C)[C@H]3CC[C@]12C [Chenodeoxycholic Acid] | 1.05 |

An excerpt of these results, as tab-separated lines.
SMILES	GFP-
CC(C)(C)Cn1c(N)nc2ccc(-c3[nH]c(C(C)(C)C)nc3-c3ccc(F)cc3)nc21	0.974
CCCCC(F)(F)C(=O)CC[C@H]1[C@H](O)CC(=O)[C@@H]1CCCCCCC(=O)O [Lubiprostone]	0.931
NNc1nncc2ccccc12 [Hydralazine]	1.12

Continued.

| SMILES | GFP- |
| --- | --- |
| CCN(CC)CC#CCOC(=O)C(O)(c1ccccc1)C1CCCCC1 (stereo not given) [Oxybutynin] | 0.971 |
| C=CC[C@@H]1/C=C(\C)C[C@H](C)C[C@H](OC)[C@H]2O[C@@](O)(C(=O)C(=O)N3CCCC[C@H]3C(=O)O[C@H](/C(C)=C/[C@@H]3CC[C@@H](O)[C@H](OC)C3)[C@H](C)[C@@H](O)CC1=O)[C@H](C)C[C@@H]2OC [Tacrolimus] | 1.15 |
| Cc1cc(=O)n(-c2ccccc2)n1C [Antipyrine] | 0.992 |
| O=C(O)CSCC(=O)NC1CCSC1=O (stereo not given) [Erdosteine] | 1.15 |
| COC(=O)N[C@H](C(=O)N[C@@H](Cc1ccccc1)[C@@H](O)CN(Cc1ccc(-c2ccccn2)cc1)NC(=O)[C@@H](NC(=O)OC)C(C)(C)C)C(C)(C)C [Atazanavir] | 1.08 |
| O=C(Nc1cccc(Cl)c1)Nc1ncc(CCNc2ncnc3ccsc23)s1 [SNS-314 Mesylate] | 0.646 ± 0.14 |
| Nc1c(CC(=O)O)cccc1C(=O)c1ccc(Br)cc1 [Bromfenac] | 1.1 |
| CCOC(=O)[C@H](CCc1ccccc1)N[C@@H](C)C(=O)N1C(=O)N(C)C[C@H]1C(=O)O [Imidapril HCl] | 1.01 |
| O=C(O)COCCN1CCN(C(c2ccccc2)c2ccc(Cl)cc2)CC1 (stereo not given) [Cetirizine] | 1.06 |
| CC(C)c1noc(N2CCC(COc3ccc(-c4ccc(S(C)(=O)=O)cc4)nc3)CC2)n1 | 0.937 |
| CCCC(=O)O[C@]1(C(=O)COC(C)=O)CC[C@H]2[C@@H]3C[C@H](F)C4=CC(=O)C=C[C@]4(C)[C@@]3(F)[C@@H](O)C[C@@]21C [Difluprednate] | 0.76 |
| Cc1cc(C(=O)NOCCO)c(Nc2ccc(I)cc2F)n(C)c1=O | 0.841 |
| COCCOc1ccc2c(c1)ncn2-c1ccc2cccc(N3CCC(N)CC3)c2n1 | 0.879 |
| CC(C)c1onc(-c2c(Cl)cccc2Cl)c1COc1ccc(/C=C/c2cccc(C(=O)O)c2)c(Cl)c1 | 1.04 |
| Cc1cc(Nc2ncc(Cl)c(Nc3ccccc3S(=O)(=O)C(C)C)n2)c(OC(C)C)cc1C1CCNCC1 [Ceritinib] | 1.03 |
| OC[C@@H]1CC[C@H](n2cnc3c(O)ncnc32)O1 [Didanosine] | 0.975 |
| Cc1ccc(-n2nc(C(C)(C)C)cc2NC(=O)Nc2ccc(OCCN3CCOCC3)c3ccccc23)cc1 [Doramapimod] | 1.07 |
| CCCN(CCC)S(=O)(=O)c1ccc(C(=O)O)cc1 [Probenecid] | 1.01 |
| O=C1NC(=O)C(=Cc2ccc3c(c2)OC(F)(F)O3)S1 (stereo in doubt) | 1.03 |
| Nc1nc(=O)n([C@@H]2CS[C@H](CO)O2)cc1F [Emtricitabine] | 1.07 |
| C#C[C@]1(O)CC[C@H]2[C@@H]3CCC4=CC(=O)CC[C@@H]4[C@H]3CC[C@@]21C [Norethisterone] | 0.87 |
| CN1CCC(=C2c3ccccc3CC(=O)c3sccc32)CC1 [Ketotifen] | 0.992 |
| CN1CCN(c2ccc3[nH]c(-c4c(O)nc5cccc(F)c5c4N)nc3c2)CC1 [Dovitinib] | 0.938 and 0.849 |
| Cc1csc(-c2nnc(Nc3ccc(Oc4ncccc4-c4ccnc(N)n4)cc3)c3ccccc23)c1 | 0.643 ± 0.16 |
| CNC(=O)c1ccc(N2C(=S)N(c3ccc(C#N)c(C(F)(F)F)c3)C(=O)C2(C)C)cc1F [Enzalutamide] | 1.11 |
| Nc1nc(O)ncc1F [Flucytosine, 5-fluorocytosine] | 0.76 |
| O=C1[C@H](Cc2ccc(O)cc2)N2C(=O)CCN(C(=O)NCc3ccccc3)[C@H]2CN1Cc1cccc2ccccc12 | 0.922 |

2 consecutive entries out of the list so far, for reference:

| SMILES | GFP- |
| --- | --- |
| CC(=O)Oc1cccc2c1C(=O)c1c(OC(C)=O)cc(C(=O)O)cc1C2=O [Diacerin] | 1.14 |
| CC(C)OC(=O)C1=CN(C(=O)c2ccc(F)c(F)c2)CC(C)(C)c2c1[nH]c1ccccc21 | 1.04 |

Next part

| SMILES | GFP- |
| --- | --- |
| COc1ccccc1N1CCN(CC(O)COc2cccc3ccccc23)CC1 (stereo not given) [Naftopidil Dihydrochloride, Naftopidil] | 1.07 and 1.02 |
| CN1CC[C@H](c2c(O)cc(O)c3c(=O)cc(-c4ccccc4Cl)oc23)[C@H](O)C1 [Flavopiridol] | 0.326 |
| COc1cc2c(Oc3ccc4[nH]c(C)cc4c3F)ncnc2cc1OCCCN1CCCC1 | 0.845 |
| O=C(O)C1=CO[C@@H](O[C@@H]2O[C@H](CO)[C@@H](O)[C@H](O)[C@H]2O)[C@@H]2C(CO)=CC[C@H]12 [Geniposidic acid] | 1.05 |
| Cc1ccc([N+](=O)[O-])cc1S(=O)(=O)N(C)/N=C/c1cnc2ccc(Br)cn12 | 0.385 |
| CC(C)Cn1cnc2c(N)nc3ccccc3c21 [Imiquimod] | 1.17 |
| COc1cc2ncnc(Nc3ccc(F)c(Cl)c3)c2cc1NC(=O)/C=C/CN1CCCCC1 [Dacomitinib] | 0.95 |
| O=C(COc1cccc2c(O)nccc12)c1ccccc1 | 0.869 ± 0.041 |
| Clc1ccc(COC(Cn2ccnc2)c2ccc(Cl)cc2Cl)c(Cl)c1 (stereo not given) [Miconazole] | 1.17 and 1.09 |
| COc1ccc(CNc2nc(N3CCC[C@H]3CO)ncc2C(=O)NCc2ncccn2)cc1Cl [Avanafil] | 1.06 |
| NC1(C(=O)N[C@@H](CCO)c2ccc(Cl)cc2)CCN(c2ncnc3[nH]ccc23)CC1 | 0.935 |
| CC(C)C[C@@H](C=O)NC(=O)[C@H](CC(C)C)NC(=O)[C@H](CC(C)C)NC(=O)OCc1ccccc1 | 0.302 |
| CCC(=O)c1c(O)cc(O)cc1O [Flopropione] | 0.804 |
| N=C(N)c1ccc(OCCCCCOc2ccc(C(=N)N)cc2)cc1 [Pentamidine] | 0.926 |
| CN(Cc1ccc(C(C)(C)C)cc1)Cc1cccc2ccccc12 [Butenafine] | 1.04 |
| C#C[C@]1(O)CC[C@H]2[C@@H]3CCc4cc(OC)ccc4[C@H]3CC[C@@]21C [Mestranol] | 1.15 |
| C[C@H]1O[C@H](O[C@H]2[C@H](O)[C@@H](O)[C@@H](O[C@H]3[C@H](O)[C@@H](O)[C@H](O)O[C@@H]3CO)O[C@@H]2CO)[C@H](O)[C@@H](O)[C@@H]1N[C@H]1C=C(CO)[C@@H](O)[C@H](O)[C@H]1O [Acarbose] | 1.04 |
| CCOC(=O)n1ccn(C)c1=S [Carbimazole] | 1.04 |
| COc1ccc(C(C)=O)c(O)c1 [Paeonol] | 1.18 |
| CCOCC(O)COc1ccc(NC(=O)CC[S+](C)C)cc1 (stereo not given) [Suplatast Tosylate] | 0.935 |
| N[C@H]1CN(c2c(F)cc3c(=O)c(C(=O)O)cn([C@@H]4C[C@@H]4F)c3c2Cl)CC12CC2 [Sitafloxacin Hydrate] | 0.921 |
| CN(NC(=O)CC(=O)NN(C)C(=S)c1ccccc1)C(=S)c1ccccc1 [Elesclomol] | 0.277 |
| Cc1nnc(NS(=O)(=O)c2ccc(N)cc2)s1 [Sulfamethizole] | 1.03 |
| Sc1ncnc2[nH]cnc12 [Mercaptopurine] | 1.05 |
| CNC(=O)c1cccc(-c2ccc3c(N4CCOC[C@@H]4C)nc(N4CCOC[C@@H]4C)nc3n2)c1 | 0.62 |
| CC(=O)O[C@]1(C(C)=O)CC[C@H]2[C@@H]3C=C(Cl)C4=CC(=O)[C@@H]5C[C@@H]5[C@]4(C)[C@H]3CC[C@@]21C [Cyproterone Acetate] | 1.14 |
